Values joined by “and” are separate entries in the source; they are usually repeats but may differ in a detail not shown here. Equal values may be shown once. This continues a long series; more values of the same kind are listed elsewhere.
Experiment: Body weight and tolerability of tumour bearing mice

CCn1c(-c2cc(N3CCN(C4CC4)CC3)cnc2[C@H](C)OC)c2c3cc(ccc31)-c1csc(n1)C[C@H](NC(=O)[C@H]1[C@@H]3COC[C@@H]31)C(=O)N1CCC[C@H](N1)C(=O)OCC(C)(C)C2 [RMC-7977]
% Body Weight Change (Hup-T3, RMC-7977 10 mg/kg po qd, day 28 on study, individual animals, 10 mg/kg): -2.74% and 0.00% and 6.09% and 7.73% and 0.87%
% Body Weight Change (LUAD G12C model, RMC-7977 10 mg/kg po qd, day 0 on study, individual animals): 0.00%
% Body Weight Change (LUAD G12C model, RMC-7977 10 mg/kg po qd, day 4 on study, individual animals, 10 mg/kg): -4.17% and 0.00% (3×) and -3.85%
% Body Weight Change (LUAD G12C model, RMC-7977 10 mg/kg po qd, day 7 on study, individual animals, 10 mg/kg): -4.17% and 0.00% and -7.69% and -3.85% and -4.35%
% Body Weight Change (LUAD G12C model, RMC-7977 10 mg/kg po qd, day 12 on study, individual animals, 10 mg/kg): -8.33% and 4.35% and -7.69% (2×) and 0.00%
% Body Weight Change (LUAD G12C model, RMC-7977 10 mg/kg po qd, day 19 on study, individual animals, 10 mg/kg): -4.17% and 0.00% and -3.85% (2×) and -4.35%
% Body Weight Change (LUAD G12C model, RMC-7977 10 mg/kg po qd, day 22 on study, individual animals, 10 mg/kg): -4.17% and 4.35% and 0.00% (2×) and -3.85%
% Body Weight Change (LUAD G12C model, RMC-7977 10 mg/kg po qd, day 26 on study, individual animals, 10 mg/kg): -4.17% and 0.00% (4×)
% Body Weight Change (LUAD G12C model, RMC-7977 10 mg/kg po qd, day 29 on study, individual animals, 10 mg/kg): -4.17% and 4.35% (2×) and 3.85% and 0.00%
% Body Weight Change (LUAD G12D model, RMC-7977 10 mg/kg po qd, day 0 on study, individual animals): 0.00%
% Body Weight Change (LUAD G12D model, RMC-7977 10 mg/kg po qd, day 4 on study, individual animals, 10 mg/kg): -4.55% and 0.00% (3×) and -4.00%
% Body Weight Change (LUAD G12D model, RMC-7977 10 mg/kg po qd, day 7 on study, individual animals, 10 mg/kg): -4.55% and -4.00% and 0.00% and -4.17% and -4.35%
% Body Weight Change (LUAD G12D model, RMC-7977 10 mg/kg po qd, day 11 on study, individual animals, 10 mg/kg): -4.55% and 0.00% (3×) and 4.35%
% Body Weight Change (LUAD G12D model, RMC-7977 10 mg/kg po qd, day 14 on study, individual animals, 10 mg/kg): -9.09% and -4.00% and 0.00% (2×) and -8.33%
% Body Weight Change (LUAD G12D model, RMC-7977 10 mg/kg po qd, day 19 on study, individual animals, 10 mg/kg): -4.55% and 4.00% and 0.00% (3×)
% Body Weight Change (LUAD G12D model, RMC-7977 10 mg/kg po qd, day 22 on study, individual animals, 10 mg/kg): 0.00% (4×) and 4.00%
% Body Weight Change (LUAD G12D model, RMC-7977 10 mg/kg po qd, day 26 on study, individual animals, 10 mg/kg): 0.00% and 4.00% (2×) and 4.17% and 4.35%
% Body Weight Change (LUAD G12D model, RMC-7977 10 mg/kg po qd, day 29 on study, individual animals): 0.00%
% Body Weight Change (LUN352 model, RMC-7977 10 mg/kg po qd, day 0 on study, individual animals): 0.00%
% Body Weight Change (LUN352 model, RMC-7977 10 mg/kg po qd, day 3 on study, individual animals, 10 mg/kg): 1.93% and 4.88% and 2.99%
% Body Weight Change (LUN352 model, RMC-7977 10 mg/kg po qd, day 7 on study, individual animals, 10 mg/kg): 0.48% and 2.44% and 0.00%
% Body Weight Change (LUN352 model, RMC-7977 10 mg/kg po qd, day 11 on study, individual animals, 10 mg/kg): -0.97% and 0.00% and 1.00%
% Body Weight Change (LUN352 model, RMC-7977 10 mg/kg po qd, day 15 on study, individual animals, 10 mg/kg): 0.48% and 0.00% and 0.50%
% Body Weight Change (LUN352 model, RMC-7977 10 mg/kg po qd, day 18 on study, individual animals, 10 mg/kg): 2.90% and 2.44% and 2.99%
% Body Weight Change (LUN352 model, RMC-7977 10 mg/kg po qd, day 22 on study, individual animals, 10 mg/kg): 2.42% and 5.85% and 1.99%
% Body Weight Change (LUN352 model, RMC-7977 10 mg/kg po qd, day 25 on study, individual animals, 10 mg/kg): -0.48% and 2.44% and -1.49%
% Body Weight Change (LUN352 model, RMC-7977 10 mg/kg po qd, day 29 on study, individual animals, 10 mg/kg): -5.31% and 0.00% and -3.98%
% Body Weight Change (MIA PaCa-2 tumor bearing BALB/c nude mice, 10 mg/kg po qd, day 0, individual animals): 0%
% Body Weight Change (MIA PaCa-2 tumor bearing BALB/c nude mice, 10 mg/kg po qd, day 3, individual animals, 10 mg/kg): 0.6579% and 4.056% and 1.536% and 0.7654% and -2.692% and 1.247% and -1.541% and 0.5825% and 4.064% and 0.1224%
% Body Weight Change (MIA PaCa-2 tumor bearing BALB/c nude mice, 10 mg/kg po qd, day 7, individual animals, 10 mg/kg): -1.692% and 3.403% and 3.512% and -0.03827% and -4.078% and -0.8018% and -1.4531% and -1.1285% and -0.2463% and -1.469%
% Body Weight Change (MIA PaCa-2 tumor bearing BALB/c nude mice, 10 mg/kg po qd, day 10, individual animals, 10 mg/kg): -4.699% and -0.5594% and -0.2634% and -0.7654% and -6.651% and -2.762% and -2.158% and -3.677% and -2.956% and -5.1%
% Body Weight Change (MIA PaCa-2 tumor bearing BALB/c nude mice, 10 mg/kg po qd, day 14, individual animals, 10 mg/kg): -2.256% and 3.17% and 2.239% and 0.995% and -4.632% and -0.08909% and -4.624% and 0.7645% and -2.791% and -0.9384%
